Assay results from patent publication US20250340660A1.
Residue numbers refer to the chain shown, from its start. Results are given in words; binding and its absence hold for the method and conditions named. Some entries that bind do so weakly or less than the wild type. Blank lines part the entries; values can stand above or below the binder they belong to.

Protein sequences, listed by entry. Tags and fused reporters are not part of them. Residues count along the entry.
UniProt P32971, residues 63-234: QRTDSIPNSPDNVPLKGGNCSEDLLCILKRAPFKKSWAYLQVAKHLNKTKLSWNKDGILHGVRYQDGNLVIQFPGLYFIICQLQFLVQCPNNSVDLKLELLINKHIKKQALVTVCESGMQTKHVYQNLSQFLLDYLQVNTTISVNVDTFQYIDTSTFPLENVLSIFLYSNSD

Tests used:
[1] = target: recombinant human CD30L (human) (UniProt P32971); assay: Carterra SPR binning; mAb coupled to the HC30M chip captures rhCD30L
[2] = target: recombinant cynomolgus CD30L protein (cynomolgus); assay: ELISA with purified CD30L
[3] = target: cynomolgus CD30L expressed on HEK293 cells (cynomolgus); assay: flow cytometry on CD30L-expressing B16 or HEK293 cells
[4] = target: recombinant cynomolgus CD30L protein (cynomolgus); assay: KinExA, Fab in solution

B2: anti-CD30L antibody Clone 2 (parental) (antibody, V domains shown)
VH: EVQLVESGGGLVQPGRSLRLSCAASGFNFDDYAMHWVRQAPGKGLEWVSGISWRSGNIGYAGSVKGRFTISRDNAKNSLYLQMNSLRPEDSALYYCAKDKGIGFNWNYEGFDYWGQGTLVTVSS
VL: DIQMTQSPSSLSASVGDRVTITCRASQGISNHLAWFQQKPGKAPKSLIYAASSLQSGVPSKFSGSGSGTDFTLTISSLQPEDFATYYCQQYVTYPLTFGGGTKVEIK
binding [2]: binds
binding [3]: binds

B3: Fab of anti-CD30L clone 2 germlined (Fab, V domains shown)
VH: B2 VH with G62D, P88A, S91T
VL: B2 VL with K61R
binding [4]: binds

B6: anti-CD30L antibody Clone 1 (parental) (antibody, V domains shown)
VH: QVQLQESGPGLVKPSETLSLTCTVSGGSISGYYWSWIRQPPVKGLEWIGYIFYSGYTKYNPSLKSRVTISVDTSKNQFSLKLSSVTAADTAVYYCARDRWDFDYWGQGALVTVSS
VL: AIQMTQSPSYLSASVGDRVTIACRASQGIRNNLGWYQQKPGKAPKLLIYAESSLQSGVPSRFSGSGSGTDFTLTISSLQPEDFATYYCLQDFNYPYTFGQGTKLEIK
binding [2]: binds
binding [3]: binds

Second part, the binder after the results:

binding [1]: binds
B1: anti-CD30L antibody clone 2 (antibody, V domains shown)
VH: B2 VH
VL: B2 VL

binding [2]: binds
binding [3]: binds
B4: anti-CD30L antibody clone 2 germlined (antibody, V domains shown)
VH: B2 VH with G62D, P88A, S91T
VL: B2 VL with K61R

binding [1]: binds
B5: anti-CD30L antibody clone 1 (antibody, V domains shown)
VH: B6 VH
VL: B6 VL
